Test results taken from the supplement of paper PMC10849652.
The list shows a part of the results.

The chains behind the UniProt entries cited, without tags or fusion partners. Where a name states a change or a piece, a line headed by the entry shows the natural chain unless it says otherwise.
UniProt Q9BYV8: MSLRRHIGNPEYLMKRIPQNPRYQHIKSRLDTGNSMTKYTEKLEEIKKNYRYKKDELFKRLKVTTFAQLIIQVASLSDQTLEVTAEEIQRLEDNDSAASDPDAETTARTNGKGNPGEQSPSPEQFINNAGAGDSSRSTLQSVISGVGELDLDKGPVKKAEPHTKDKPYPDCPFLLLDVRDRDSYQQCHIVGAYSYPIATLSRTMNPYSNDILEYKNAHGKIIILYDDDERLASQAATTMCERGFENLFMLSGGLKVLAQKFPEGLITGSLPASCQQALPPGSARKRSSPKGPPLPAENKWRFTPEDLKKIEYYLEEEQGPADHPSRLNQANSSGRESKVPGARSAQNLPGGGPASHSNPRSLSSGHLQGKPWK
UniProt P14209: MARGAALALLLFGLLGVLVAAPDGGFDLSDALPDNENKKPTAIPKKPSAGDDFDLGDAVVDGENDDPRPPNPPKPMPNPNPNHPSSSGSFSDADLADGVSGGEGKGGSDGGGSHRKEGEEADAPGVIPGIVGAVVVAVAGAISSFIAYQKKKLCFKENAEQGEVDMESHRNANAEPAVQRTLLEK
UniProt Q9BU64: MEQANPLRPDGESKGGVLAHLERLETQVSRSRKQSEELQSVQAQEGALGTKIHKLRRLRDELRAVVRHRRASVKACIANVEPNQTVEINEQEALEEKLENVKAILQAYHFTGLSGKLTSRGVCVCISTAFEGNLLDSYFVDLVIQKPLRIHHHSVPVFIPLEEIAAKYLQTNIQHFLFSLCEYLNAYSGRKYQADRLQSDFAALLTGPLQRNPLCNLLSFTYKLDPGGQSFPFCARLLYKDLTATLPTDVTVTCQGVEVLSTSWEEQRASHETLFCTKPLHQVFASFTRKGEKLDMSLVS
UniProt P11802: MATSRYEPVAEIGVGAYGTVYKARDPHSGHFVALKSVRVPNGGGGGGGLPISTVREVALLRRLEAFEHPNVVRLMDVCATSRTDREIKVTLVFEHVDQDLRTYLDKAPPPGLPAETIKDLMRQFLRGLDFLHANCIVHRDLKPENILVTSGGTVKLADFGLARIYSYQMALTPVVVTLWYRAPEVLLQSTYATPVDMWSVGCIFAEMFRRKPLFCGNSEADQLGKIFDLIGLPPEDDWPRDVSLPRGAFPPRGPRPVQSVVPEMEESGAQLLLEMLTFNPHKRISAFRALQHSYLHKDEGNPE
UniProt P49918: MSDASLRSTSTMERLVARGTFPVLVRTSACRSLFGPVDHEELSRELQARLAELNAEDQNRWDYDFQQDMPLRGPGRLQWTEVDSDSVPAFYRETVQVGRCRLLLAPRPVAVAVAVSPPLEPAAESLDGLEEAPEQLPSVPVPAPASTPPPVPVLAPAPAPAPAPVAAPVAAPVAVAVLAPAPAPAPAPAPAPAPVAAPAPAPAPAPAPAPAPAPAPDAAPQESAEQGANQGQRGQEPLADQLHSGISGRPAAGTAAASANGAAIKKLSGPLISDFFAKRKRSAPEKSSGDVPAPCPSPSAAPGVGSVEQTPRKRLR
UniProt A8MTT3: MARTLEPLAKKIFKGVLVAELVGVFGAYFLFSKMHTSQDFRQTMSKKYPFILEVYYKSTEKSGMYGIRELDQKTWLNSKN
UniProt Q6P2H3: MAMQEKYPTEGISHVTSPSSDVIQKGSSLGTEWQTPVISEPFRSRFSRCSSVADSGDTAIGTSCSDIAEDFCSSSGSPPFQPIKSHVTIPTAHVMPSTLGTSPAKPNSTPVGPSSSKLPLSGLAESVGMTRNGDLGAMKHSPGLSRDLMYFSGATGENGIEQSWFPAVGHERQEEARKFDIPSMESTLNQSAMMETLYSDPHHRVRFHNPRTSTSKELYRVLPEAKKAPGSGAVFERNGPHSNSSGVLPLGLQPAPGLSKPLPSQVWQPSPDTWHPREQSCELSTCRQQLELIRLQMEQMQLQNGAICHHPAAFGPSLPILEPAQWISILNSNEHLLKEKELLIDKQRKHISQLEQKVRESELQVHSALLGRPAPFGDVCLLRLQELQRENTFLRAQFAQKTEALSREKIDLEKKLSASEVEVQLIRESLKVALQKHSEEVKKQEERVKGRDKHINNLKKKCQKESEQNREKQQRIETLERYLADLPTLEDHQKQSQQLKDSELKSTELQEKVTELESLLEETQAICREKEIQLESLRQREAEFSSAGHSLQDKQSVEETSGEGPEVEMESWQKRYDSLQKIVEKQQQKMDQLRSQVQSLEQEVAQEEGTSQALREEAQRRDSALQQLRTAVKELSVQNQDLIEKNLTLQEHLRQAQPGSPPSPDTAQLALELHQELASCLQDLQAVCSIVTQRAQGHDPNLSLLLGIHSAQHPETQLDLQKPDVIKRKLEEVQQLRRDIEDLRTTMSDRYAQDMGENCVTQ
UniProt Q86X02: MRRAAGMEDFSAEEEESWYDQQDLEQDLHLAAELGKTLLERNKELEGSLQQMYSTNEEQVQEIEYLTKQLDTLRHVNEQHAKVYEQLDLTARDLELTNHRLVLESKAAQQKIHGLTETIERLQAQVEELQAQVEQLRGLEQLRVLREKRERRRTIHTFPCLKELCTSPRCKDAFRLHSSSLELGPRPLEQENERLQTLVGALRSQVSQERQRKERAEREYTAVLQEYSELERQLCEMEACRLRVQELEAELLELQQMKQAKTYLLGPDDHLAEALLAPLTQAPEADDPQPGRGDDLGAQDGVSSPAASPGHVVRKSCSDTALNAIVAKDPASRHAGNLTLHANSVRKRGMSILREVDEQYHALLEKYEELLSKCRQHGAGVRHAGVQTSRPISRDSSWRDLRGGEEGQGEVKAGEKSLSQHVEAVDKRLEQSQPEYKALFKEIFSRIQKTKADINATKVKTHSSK
UniProt Q15517: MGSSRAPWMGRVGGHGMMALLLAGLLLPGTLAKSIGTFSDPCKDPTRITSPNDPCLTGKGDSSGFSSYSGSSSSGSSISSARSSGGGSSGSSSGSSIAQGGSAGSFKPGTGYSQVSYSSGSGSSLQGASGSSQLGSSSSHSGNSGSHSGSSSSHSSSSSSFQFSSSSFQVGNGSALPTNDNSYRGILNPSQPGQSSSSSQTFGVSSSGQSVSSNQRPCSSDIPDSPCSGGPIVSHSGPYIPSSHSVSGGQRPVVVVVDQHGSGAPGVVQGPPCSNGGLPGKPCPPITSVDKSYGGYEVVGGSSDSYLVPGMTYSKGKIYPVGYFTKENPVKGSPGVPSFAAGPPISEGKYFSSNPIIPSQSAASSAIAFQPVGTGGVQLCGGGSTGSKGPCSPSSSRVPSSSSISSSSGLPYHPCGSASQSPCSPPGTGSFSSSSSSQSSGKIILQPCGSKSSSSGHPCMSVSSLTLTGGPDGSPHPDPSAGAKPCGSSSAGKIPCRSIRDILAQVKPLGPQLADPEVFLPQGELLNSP
UniProt Q9Y232: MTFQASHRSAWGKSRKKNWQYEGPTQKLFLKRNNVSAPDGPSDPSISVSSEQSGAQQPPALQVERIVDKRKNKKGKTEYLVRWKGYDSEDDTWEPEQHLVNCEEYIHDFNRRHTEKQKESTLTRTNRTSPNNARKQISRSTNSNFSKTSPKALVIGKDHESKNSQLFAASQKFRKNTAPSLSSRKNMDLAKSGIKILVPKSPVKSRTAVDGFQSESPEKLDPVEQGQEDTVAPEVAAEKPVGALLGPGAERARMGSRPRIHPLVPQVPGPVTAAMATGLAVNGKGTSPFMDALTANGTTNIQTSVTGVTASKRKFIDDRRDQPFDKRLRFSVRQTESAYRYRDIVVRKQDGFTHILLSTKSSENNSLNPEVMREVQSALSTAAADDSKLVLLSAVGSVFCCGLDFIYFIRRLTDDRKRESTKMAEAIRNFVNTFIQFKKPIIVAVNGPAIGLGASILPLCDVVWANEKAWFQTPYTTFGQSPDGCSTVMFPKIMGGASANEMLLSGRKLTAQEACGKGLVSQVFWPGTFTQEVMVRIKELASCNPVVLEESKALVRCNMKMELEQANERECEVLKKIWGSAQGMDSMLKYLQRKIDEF
UniProt Q00535, whole entry, looked up: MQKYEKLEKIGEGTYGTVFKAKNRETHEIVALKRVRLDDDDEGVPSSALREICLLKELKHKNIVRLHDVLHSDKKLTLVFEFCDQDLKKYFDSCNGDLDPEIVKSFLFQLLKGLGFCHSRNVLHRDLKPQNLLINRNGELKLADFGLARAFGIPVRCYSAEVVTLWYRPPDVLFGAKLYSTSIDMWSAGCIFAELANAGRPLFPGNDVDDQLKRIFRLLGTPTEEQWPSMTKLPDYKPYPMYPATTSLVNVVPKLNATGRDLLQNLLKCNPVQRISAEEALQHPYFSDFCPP
UniProt Q8N960: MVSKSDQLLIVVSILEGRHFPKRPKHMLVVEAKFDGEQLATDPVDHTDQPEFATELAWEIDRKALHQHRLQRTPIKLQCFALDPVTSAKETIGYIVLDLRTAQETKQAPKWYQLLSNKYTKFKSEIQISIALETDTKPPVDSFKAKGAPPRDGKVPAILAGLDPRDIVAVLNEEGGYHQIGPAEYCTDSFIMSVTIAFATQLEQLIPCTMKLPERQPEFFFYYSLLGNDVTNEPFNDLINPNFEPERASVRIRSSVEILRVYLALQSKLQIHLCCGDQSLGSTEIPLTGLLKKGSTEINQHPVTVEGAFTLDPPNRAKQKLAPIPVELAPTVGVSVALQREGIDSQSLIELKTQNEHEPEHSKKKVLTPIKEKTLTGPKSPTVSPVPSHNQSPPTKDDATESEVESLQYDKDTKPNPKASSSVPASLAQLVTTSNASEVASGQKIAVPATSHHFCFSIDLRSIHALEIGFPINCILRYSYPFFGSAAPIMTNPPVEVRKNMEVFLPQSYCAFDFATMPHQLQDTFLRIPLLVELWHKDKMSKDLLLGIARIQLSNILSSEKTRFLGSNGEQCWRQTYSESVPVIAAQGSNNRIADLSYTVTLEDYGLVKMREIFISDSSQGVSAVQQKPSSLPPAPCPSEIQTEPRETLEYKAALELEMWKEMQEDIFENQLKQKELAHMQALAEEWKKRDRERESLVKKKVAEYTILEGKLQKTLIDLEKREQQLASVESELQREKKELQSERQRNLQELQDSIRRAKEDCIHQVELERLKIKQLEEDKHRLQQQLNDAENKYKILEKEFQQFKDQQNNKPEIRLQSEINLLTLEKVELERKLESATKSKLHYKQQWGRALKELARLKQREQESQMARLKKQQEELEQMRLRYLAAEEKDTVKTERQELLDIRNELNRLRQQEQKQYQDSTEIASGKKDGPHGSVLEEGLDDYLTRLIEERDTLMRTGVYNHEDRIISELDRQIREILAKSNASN
UniProt Q5SZL2: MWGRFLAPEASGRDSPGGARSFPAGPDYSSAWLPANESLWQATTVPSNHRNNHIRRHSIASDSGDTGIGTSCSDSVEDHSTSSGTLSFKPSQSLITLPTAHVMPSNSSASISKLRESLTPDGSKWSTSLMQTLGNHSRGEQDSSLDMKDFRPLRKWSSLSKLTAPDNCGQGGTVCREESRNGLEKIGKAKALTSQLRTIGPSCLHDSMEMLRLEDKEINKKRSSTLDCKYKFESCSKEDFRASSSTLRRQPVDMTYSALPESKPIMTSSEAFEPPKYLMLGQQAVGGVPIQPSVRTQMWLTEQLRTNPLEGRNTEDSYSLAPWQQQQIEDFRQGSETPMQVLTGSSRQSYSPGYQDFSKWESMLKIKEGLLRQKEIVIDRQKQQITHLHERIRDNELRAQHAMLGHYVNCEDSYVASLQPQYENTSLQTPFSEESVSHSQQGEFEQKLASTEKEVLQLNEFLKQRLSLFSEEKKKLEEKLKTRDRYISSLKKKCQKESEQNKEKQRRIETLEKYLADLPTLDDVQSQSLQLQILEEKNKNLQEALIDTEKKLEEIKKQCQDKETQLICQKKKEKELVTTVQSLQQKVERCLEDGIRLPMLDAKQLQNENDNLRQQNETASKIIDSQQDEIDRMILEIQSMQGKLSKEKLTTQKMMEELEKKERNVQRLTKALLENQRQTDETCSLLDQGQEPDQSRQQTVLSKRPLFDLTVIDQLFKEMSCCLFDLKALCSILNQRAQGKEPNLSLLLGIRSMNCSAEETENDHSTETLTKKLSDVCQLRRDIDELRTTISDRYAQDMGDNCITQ
UniProt P17676: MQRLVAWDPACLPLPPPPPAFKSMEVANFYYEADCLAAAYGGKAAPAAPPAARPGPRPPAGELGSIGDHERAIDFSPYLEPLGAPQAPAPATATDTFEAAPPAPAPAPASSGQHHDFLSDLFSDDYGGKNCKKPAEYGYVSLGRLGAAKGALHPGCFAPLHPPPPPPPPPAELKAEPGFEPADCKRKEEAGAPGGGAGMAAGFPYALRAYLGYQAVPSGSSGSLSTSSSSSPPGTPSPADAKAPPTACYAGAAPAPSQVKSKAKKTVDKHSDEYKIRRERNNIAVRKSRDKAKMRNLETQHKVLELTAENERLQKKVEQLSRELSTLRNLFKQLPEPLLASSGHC
UniProt Q96FF9: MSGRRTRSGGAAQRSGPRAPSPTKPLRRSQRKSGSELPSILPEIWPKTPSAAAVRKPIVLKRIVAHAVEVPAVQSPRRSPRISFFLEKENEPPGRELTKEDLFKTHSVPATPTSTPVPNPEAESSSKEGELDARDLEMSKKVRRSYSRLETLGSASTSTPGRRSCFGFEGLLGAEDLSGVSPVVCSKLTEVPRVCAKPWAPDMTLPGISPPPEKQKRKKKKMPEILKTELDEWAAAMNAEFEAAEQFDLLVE

Compound: C1=CC(=CC=C1C2=NC3=C(N2)C=C(C=C3)C(=O)N)OC4=CC=C(C=C4)Cl
Test: log2 fold change, soluble protein after heating vs DMSO (PISA); higher = thermal stabilisation; K562 lysate, 10 uM; active = over 0.2 and 3.5 SD of the protein, either way, in both replicates (recomputed)
Summary of the method: (§1)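 A 30 min treatment with 10 μM compound was applied to crude K562 extract at 1 mg/mL protein in PBS pH 7.4 with 1 mM MgCl2. Heating for 3 min spanned 48°C-58°C, after which aliquots were pooled, adjusted to 0.5% NP-40 at 4°C and spun at 21,000xg for 90 min. TMTpro 16plex LC-MS/MS of the supernatant, with channel sums equalised, gave values recorded as log-two fold change in thermal stability against solvent controls, from duplicates.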

log2 fold change, inactive:
CDC40 (UniProt O60508) -0.009, CEP41 (UniProt Q9BYV8) 0.006, CENPP (UniProt Q6IPU0) -0.148, CDK8 (UniProt P49336) 0.028, CDC42BPA isoform 6 (UniProt Q5VT25) -0.086, CD99 (UniProt P14209) 0.073, CENPO (UniProt Q9BU64) -0.062, CDK2AP2 (UniProt O75956) 0.105, CFAP410 (UniProt O43822) 0.047, CDK4 (UniProt P11802) -0.026, CDKN1C (UniProt P49918) -0.015, CDCA8 (UniProt Q53HL2) 0.009, CENPJ (UniProt Q9HC77) 0.105, CEP83 (UniProt Q9Y592) 0.206, CDC42EP4 (UniProt Q9H3Q1) -0.005, CEP78 isoform 2 (UniProt Q5JTW2) -0.062, CEBPZOS (UniProt A8MTT3) 0.004, CEP85 isoform 2 (UniProt Q6P2H3) -0.062, CEP192 (UniProt Q8TEP8) -0.107, CDR2L (UniProt Q86X02) -0.062, CD82 (UniProt P27701) -0.019, CDC7 (UniProt O00311) 0.038, CDC37 (UniProt K7EKQ2) 0.012, CDR2 (UniProt Q01850) -0.01, CDSN (UniProt Q15517) -0.358, CDYL (UniProt Q9Y232) 0.095, CDK5 (UniProt Q00535) 0.126, CEP120 (UniProt Q8N960) -0.03, CFAP97 (UniProt Q9P2B7) -0.058, CEP85L isoform 4 (UniProt Q5SZL2) -0.137, CELF2 isoform 3 (UniProt O95319) -0.041, CD99L2 isoform 5 (UniProt Q8TCZ2) 0.063, CFL1 (UniProt P23528) -0.02, CEBPB (UniProt P17676) 0.053, CDCA5 (UniProt Q96FF9) -0.025, CFAP47 (UniProt Q6ZTR5) 0.106, CDC42BPB (UniProt Q9Y5S2) 0.044, CEP250 (UniProt Q9BV73) -0.014, CDK2 (UniProt P24941) 0.051, CDCA2 (UniProt Q69YH5) 0.167

Compound: C1=CC2=C(C=CC(=C2)/C=C\3/C(=O)NC(=NCC4=CC=CS4)S3)N=C1
Test: as above
Summary of the method: as §1

log2 fold change, inactive:
CDC40 (UniProt O60508) -0.037, CEP41 (UniProt Q9BYV8) -0.007, CENPP (UniProt Q6IPU0) -0.121, CDK8 (UniProt P49336) -0.128, CDC42BPA isoform 6 (UniProt Q5VT25) 0.011, CD99 (UniProt P14209) -0.134, CDK2AP2 (UniProt O75956) -0.005, CFAP410 (UniProt O43822) -0.08, CDK4 (UniProt P11802) -0.028, CDKN1C (UniProt P49918) -0.159, CDCA8 (UniProt Q53HL2) -0.071, CENPJ (UniProt Q9HC77) -0.004, CEP83 (UniProt Q9Y592) -0.048, CDC42EP4 (UniProt Q9H3Q1) 0.017, CEBPZOS (UniProt A8MTT3) 0.003, CEP85 isoform 2 (UniProt Q6P2H3) -0.004, CEP192 (UniProt Q8TEP8) -0.014, CDR2L (UniProt Q86X02) -0.021, CD82 (UniProt P27701) 0.035, CDC7 (UniProt O00311) -0.109, CDC37 (UniProt K7EKQ2) 0.075, CDR2 (UniProt Q01850) 0.006, CDSN (UniProt Q15517) 0.012, CDYL (UniProt Q9Y232) 0.099, CDK5 (UniProt Q00535) -0.041, CEP120 (UniProt Q8N960) -0.02, CFAP97 (UniProt Q9P2B7) 0.139, CEP85L isoform 4 (UniProt Q5SZL2) -0.243, CELF2 isoform 3 (UniProt O95319) -0.004, CD99L2 isoform 5 (UniProt Q8TCZ2) 0.07, CFL1 (UniProt P23528) 0.023, CEBPB (UniProt P17676) -0.021, CDCA5 (UniProt Q96FF9) 0, CFAP47 (UniProt Q6ZTR5) -0.193, CDC42BPB (UniProt Q9Y5S2) -0.14, CEP250 (UniProt Q9BV73) -0.021, CDCA2 (UniProt Q69YH5) -0.051
